{
  "sequences": {"note": "The chains behind the UniProt entries cited, without tags or fusion partners. Where a name states a change or a piece, a line headed by the entry shows the natural chain unless it says otherwise.", "UniProt Q9UNA4": "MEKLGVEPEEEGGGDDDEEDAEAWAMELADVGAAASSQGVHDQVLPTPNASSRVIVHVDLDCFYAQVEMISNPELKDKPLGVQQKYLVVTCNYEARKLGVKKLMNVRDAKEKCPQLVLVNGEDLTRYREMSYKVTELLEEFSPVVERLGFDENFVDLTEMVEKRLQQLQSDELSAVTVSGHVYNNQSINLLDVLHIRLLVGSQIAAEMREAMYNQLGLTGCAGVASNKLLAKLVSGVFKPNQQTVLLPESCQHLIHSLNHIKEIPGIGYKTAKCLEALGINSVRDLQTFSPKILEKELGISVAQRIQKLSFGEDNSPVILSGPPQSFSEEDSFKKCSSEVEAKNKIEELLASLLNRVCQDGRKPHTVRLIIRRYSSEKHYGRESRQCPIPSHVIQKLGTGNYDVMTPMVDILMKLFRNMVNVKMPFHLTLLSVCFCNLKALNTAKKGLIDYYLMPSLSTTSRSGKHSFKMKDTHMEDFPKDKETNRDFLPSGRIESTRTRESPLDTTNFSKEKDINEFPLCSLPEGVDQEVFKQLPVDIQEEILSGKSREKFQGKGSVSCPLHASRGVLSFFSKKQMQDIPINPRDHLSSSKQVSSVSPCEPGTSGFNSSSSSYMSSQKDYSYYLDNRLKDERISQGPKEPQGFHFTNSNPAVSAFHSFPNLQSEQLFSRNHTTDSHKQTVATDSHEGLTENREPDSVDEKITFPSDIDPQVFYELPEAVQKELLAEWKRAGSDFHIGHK"},
  "source": "PubChem BioAssay AID588590",
  "about": "(National Center for Advancing Translational Sciences (NCATS), 2011)",
  "note": "The whole screen tested about 390,000 compounds, of which about 4,000 (1%) were called active. The shares of active, inactive and inconclusive entries below differ from those in the screen. The call rests on the fitted dose curve; in most records, active means well fitted inhibition curve with a large enough effect; inconclusive means small, poorly fitted or top-dose-only effect, or another doubt; inactive means no such curve, though single readings can be large or run the other way. Potencies of inconclusive entries are doubtful fits and often do not repeat. Potency means the concentration at half of the fitted maximal effect.",
  "data": [
    {"molecular_target": "DNA polymerase iota (Homo sapiens) (UniProt Q9UNA4)", "experiment": "qHTS for Inhibitors of Polymerase Iota", "details": "Pol iota fluorescent replication assay, 10 min; series mostly up to 115 µM", "in_short": "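Pol iota at 10 nM preincubated 15 min with compounds at room temperature; reaction started with fluorescent substrate, 50 nM final. Fluorescence read kinetically at 0 and 10 min; buffer-only wells as negative control.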", "values": [
      {"smiles": "Cc1cccc(-n2c(-c3ccco3)nc3ccccc3c2=O)n1", "Potency": "inconclusive: 89.1 µM [inhibitor, single point]"},
      {"smiles": "Oc1ccc(C2=CCNCC2)cc1O", "Potency": "inconclusive: 63.1 µM [inhibitor, partial curve, poor fit]"},
      {"smiles": "CN1CCC2(CC1)NC(=O)c1ccccc1N2", "Potency": "inactive"},
      {"smiles": "N#C/C(=C\\c1ccc(O)cc1)C(=O)O", "note": "(tested in a mixture with another compound)", "Potency": "inconclusive: 56.2 µM [inhibitor, partial curve, poor fit]"},
      {"smiles": "COc1ccc2c(c1O)-c1cccc3c1[C@@H](C2)N(C)CC3", "Potency": "inconclusive: 11.2 µM [inhibitor, partial curve, poor fit]"},
      {"smiles": "c1ccc(SSc2ccccc2)cc1", "Potency": "inconclusive: 39.8 µM [inhibitor, partial curve, poor fit]"},
      {"smiles": "CCOC(=O)c1[nH]c(=O)c2ccccc2c1O", "Potency": "inconclusive: 25.1 µM [inhibitor, single point]"},
      {"smiles": "O=Cc1c(C(=O)O)n(Cc2ccc(Cl)cc2)c2ccccc12", "Potency": "inconclusive: 112 µM [inhibitor, partial curve, poor fit]"},
      {"smiles": "CC1CCCCN1CCNS(=O)(=O)c1ccc2c(c1)oc(=O)n2C", "note": "(stereo not drawn)", "Potency": "inconclusive: 141 µM [inhibitor, single point]"},
      {"smiles": "CNS(=O)(=O)c1ccc(-c2ccc(C=C3C(=O)NC(=O)NC3=O)o2)cc1", "Potency": "active: 22.4 µM"},
      {"smiles": "CCN(CC)c1ccc(CC2C(=O)N(C)C(=O)N(C)C2=O)cc1", "Potency": "inconclusive: 25.1 µM [inhibitor, partial curve]"},
      {"smiles": "COc1cc(CN2CCN(c3cc(C)ccc3C)CC2)ccc1O", "Potency": "inconclusive: 15.8 µM [inhibitor, partial curve, poor fit]"},
      {"smiles": "COc1ccc(-n2c(O)c(/C=C/C=Nc3ccccc3)c(=O)[nH]c2=O)cc1", "Potency": "inconclusive: 63.1 µM [inhibitor, partial curve, poor fit]"},
      {"smiles": "Cc1cccc(Cn2cccc(C(=O)Nc3nc4ccccc4s3)c2=O)c1", "Potency": "inconclusive: 22.4 µM [inhibitor, partial curve, poor fit]"},
      {"smiles": "O=C1NC(=O)C(=Cc2ccc(N3CCOCC3)cc2)C(=O)N1", "Potency": "inconclusive: 20 µM [inhibitor, single point]"},
      {"smiles": "COc1cccc(-n2nc(C(=O)N3CCC4(CC3)OCCO4)c3ccccc3c2=O)c1", "Potency": "inconclusive: 0.891 µM [inhibitor, partial curve, poor fit]"},
      {"smiles": "COc1ccc2c(c1)NP(=S)(c1ccccc1)N2C", "note": "(stereo not drawn)", "Potency": "inactive"},
      {"smiles": "COC(=O)C1=C(c2cccc(OCc3ccccc3)c2)C[C@@H]2CC[C@H]1N2C(=O)NCc1ccc(Br)cc1", "Potency": "inconclusive: 100 µM [inhibitor, single point]"}
    ]}
  ]
}
